Laboratory results: PubChem BioAssay AID1508597 (Cure First, 2020)
Screen: 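Knock-downs altering ovarian cancer cell survival with or without PARP inhibitor rucaparib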 (primary screen). Cells: human ovarian carcinoma lines grown from tumours: OCI-P5x (papillary serous) and OCI-C5x (clear cell). Knock-down reagent: siRNA pool against human genes, 1.25 pmol siRNA per well. Time to read-out: 72 h or 96 h, depending on the cell culture. Challenge: rucaparib 20 µM (about IC30) or vehicle, present until read-out. Rucaparib or vehicle: Vehicle. Cell line: OCI-C5x (clear cell). Detection: 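Luminescent ATP-based viability assay read 72 or 96 h after transfection, depending on culture, given as normalised percent viability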. Scale: viability, normalised: higher = more viable cells remaining. Hit rule: 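a well counts as a hit if its normalised viability is under 80 percent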. Meaning of the calls: active = viability under 80%; inactive = viability 80% or more.
This is a random part of the about 2,100 reagents, under one of the conditions tested. 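Calls flag viability under 80% in either arm, not effects specific to rucaparib; the reference for percent is not stated.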 The record does not give: the 100% reference.

How did the screen score LRRK2 (leucine rich repeat kinase 2), technical replicate 1?
viability, normalised (%): 54.5; outcome: active

What is on record for LRRK2 (leucine rich repeat kinase 2), technical replicate 2?
viability, normalised (%): 66.4; outcome: active

How did the screen score LRRK2 (leucine rich repeat kinase 2), technical replicate 3?
viability, normalised (%): 49.5; outcome: active

What is on record for PRDM7 (PR/SET domain 7), technical replicate 1?
viability, normalised (%): 41.4; outcome: active

Which result is listed for PRDM7 (PR/SET domain 7), technical replicate 2?
viability, normalised (%): 39.1; outcome: active

What is on record for PRDM7 (PR/SET domain 7), technical replicate 3?
viability, normalised (%): 39.1; outcome: active

With SETD6 (SET domain containing 6, protein lysine methyltransferase), technical replicate 1, what was measured?
viability, normalised (%): 24.2; outcome: active

For SETD6 (SET domain containing 6, protein lysine methyltransferase), technical replicate 2, what does the deposit list?
viability, normalised (%): 29.3; outcome: active

How did the screen score SETD6 (SET domain containing 6, protein lysine methyltransferase), technical replicate 3?
viability, normalised (%): 30; outcome: active

How did the screen score PCDHB14 (protocadherin beta 14), technical replicate 1?
viability, normalised (%): 39.4; outcome: active

What did the screen give for PCDHB14 (protocadherin beta 14), technical replicate 2?
viability, normalised (%): 30.2; outcome: active

Which result is listed for PCDHB14 (protocadherin beta 14), technical replicate 3?
viability, normalised (%): 24.9; outcome: active

With HSPB8 (heat shock protein family B (small) member 8), technical replicate 1, what does the deposit list?
viability, normalised (%): 59.9; outcome: active

Which result is listed for HSPB8 (heat shock protein family B (small) member 8), technical replicate 2?
viability, normalised (%): 54.6; outcome: active

How did the screen score HSPB8 (heat shock protein family B (small) member 8), technical replicate 3?
viability, normalised (%): 48.9; outcome: active

How did the screen score PIK3C2G, technical replicate 1?
viability, normalised (%): 64.2; outcome: active

What is on record for PIK3C2G, technical replicate 2?
viability, normalised (%): 85.7; outcome: inactive

Which result is listed for PIK3C2G, technical replicate 3?
viability, normalised (%): 51.4; outcome: active

With YBX1 (Y-box binding protein 1), technical replicate 1, what was measured?
viability, normalised (%): 54.7; outcome: active

With YBX1 (Y-box binding protein 1), technical replicate 2, how do the results read?
viability, normalised (%): 39.7; outcome: active

With YBX1 (Y-box binding protein 1), technical replicate 3, how do the results read?
viability, normalised (%): 48.7; outcome: active

With TCF19 (transcription factor 19), technical replicate 1, what was measured?
viability, normalised (%): 39; outcome: active

With TCF19 (transcription factor 19), technical replicate 2, what does the deposit list?
viability, normalised (%): 76.4; outcome: active

For TCF19 (transcription factor 19), technical replicate 3, what was measured?
viability, normalised (%): 63.5; outcome: active

For CNR2 (cannabinoid receptor 2), technical replicate 1, what does the deposit list?
viability, normalised (%): 39.4; outcome: active

Which result is listed for CNR2 (cannabinoid receptor 2), technical replicate 2?
viability, normalised (%): 54.5; outcome: active

For CNR2 (cannabinoid receptor 2), technical replicate 3, what was measured?
viability, normalised (%): 35.7; outcome: active

With MED4 (mediator complex subunit 4), technical replicate 1, how do the results read?
viability, normalised (%): 43.8; outcome: active

For MED4 (mediator complex subunit 4), technical replicate 2, how do the results read?
viability, normalised (%): 56; outcome: active

With MED4 (mediator complex subunit 4), technical replicate 3, how do the results read?
viability, normalised (%): 53.5; outcome: active

With SHH (sonic hedgehog signaling molecule), technical replicate 1, how do the results read?
viability, normalised (%): 47.3; outcome: active

With SHH (sonic hedgehog signaling molecule), technical replicate 2, how do the results read?
viability, normalised (%): 39.3; outcome: active

With SHH (sonic hedgehog signaling molecule), technical replicate 3, what does the deposit list?
viability, normalised (%): 38.4; outcome: active
